No constants are given. Whether binding was seen depends on the method and setting. Binding seen in cells or lysates may run through a third protein. Sequences can lack the tags named with a protein.
target: T1, HA-Cystatin B (UniProt P01041); test: co-IP; 293T cells 24 hr after transfection, lysed in RIPA buffer (300 mM NaCl, 0.5% NP40, 20 mM Hepes KOH pH 8, 20% Glycerol, 2 mM DTT, 0.4 mM EDTA) and sonicated; 400 µg extract immunoprecipitated overnight with anti-HA abs on Protein A-Sepharose; western blot
T1 sequence: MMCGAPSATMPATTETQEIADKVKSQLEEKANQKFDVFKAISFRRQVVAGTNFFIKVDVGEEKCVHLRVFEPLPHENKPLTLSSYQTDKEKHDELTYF

Chains of the proteins cited; added tags and fusions are not shown. Lines headed by an entry give the natural chain unless they say otherwise; changes in a name come on top.
UniProt P46060: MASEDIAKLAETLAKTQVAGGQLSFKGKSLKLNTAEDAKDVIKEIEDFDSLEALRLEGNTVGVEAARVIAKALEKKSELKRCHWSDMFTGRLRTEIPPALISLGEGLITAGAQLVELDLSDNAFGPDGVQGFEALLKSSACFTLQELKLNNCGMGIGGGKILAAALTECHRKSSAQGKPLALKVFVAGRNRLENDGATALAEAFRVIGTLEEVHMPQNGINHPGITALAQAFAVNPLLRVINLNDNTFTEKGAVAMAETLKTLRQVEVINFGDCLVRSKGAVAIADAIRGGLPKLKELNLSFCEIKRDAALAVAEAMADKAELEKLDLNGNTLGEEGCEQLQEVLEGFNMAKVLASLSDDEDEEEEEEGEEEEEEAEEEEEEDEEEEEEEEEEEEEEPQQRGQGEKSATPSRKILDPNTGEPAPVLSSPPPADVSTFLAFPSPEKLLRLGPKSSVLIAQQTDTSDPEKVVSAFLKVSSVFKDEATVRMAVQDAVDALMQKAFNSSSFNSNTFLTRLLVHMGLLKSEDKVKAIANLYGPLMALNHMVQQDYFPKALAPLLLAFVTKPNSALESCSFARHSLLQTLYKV

binding, no binding:
Flag-ARIP3 wt (aa 1–572) (from UniProt Q6AZ28 1-572) (enzyme)
Ubc9 (pRK7, expressed in 293T cells) (from UniProt P63281 1-158) (enzyme)
sumoylated RanGAP1 (approximately 90 Kd) (from UniProt P46060 1-587; P63165 1-97) (complex)

Reference: publication PMC2635935
